Experiment [1] concerns the target T1, Tti2-TAP (S. pombe) (S. pombe) (UniProt O94729).
T1 sequence: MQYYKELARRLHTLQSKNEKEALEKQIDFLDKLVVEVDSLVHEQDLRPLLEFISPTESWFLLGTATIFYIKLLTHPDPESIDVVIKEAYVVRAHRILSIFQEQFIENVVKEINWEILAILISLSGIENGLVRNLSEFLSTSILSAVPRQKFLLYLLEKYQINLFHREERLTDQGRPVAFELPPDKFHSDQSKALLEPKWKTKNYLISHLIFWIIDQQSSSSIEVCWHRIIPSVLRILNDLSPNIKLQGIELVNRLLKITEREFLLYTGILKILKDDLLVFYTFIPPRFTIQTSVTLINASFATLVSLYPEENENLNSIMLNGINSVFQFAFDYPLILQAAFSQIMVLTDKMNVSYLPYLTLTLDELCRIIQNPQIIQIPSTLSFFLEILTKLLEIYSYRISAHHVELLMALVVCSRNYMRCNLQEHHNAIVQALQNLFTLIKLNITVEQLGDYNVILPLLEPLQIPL
Description: affinity purification with mass spectrometry; tandem affinity purification of Tti2 from S. pombe extracts, LC-MS/MS with label-free quantification, TAP against no-TAP samples.

By UniProt entry, the sequences of proteins in these tests, tags left out.
UniProt Q10064: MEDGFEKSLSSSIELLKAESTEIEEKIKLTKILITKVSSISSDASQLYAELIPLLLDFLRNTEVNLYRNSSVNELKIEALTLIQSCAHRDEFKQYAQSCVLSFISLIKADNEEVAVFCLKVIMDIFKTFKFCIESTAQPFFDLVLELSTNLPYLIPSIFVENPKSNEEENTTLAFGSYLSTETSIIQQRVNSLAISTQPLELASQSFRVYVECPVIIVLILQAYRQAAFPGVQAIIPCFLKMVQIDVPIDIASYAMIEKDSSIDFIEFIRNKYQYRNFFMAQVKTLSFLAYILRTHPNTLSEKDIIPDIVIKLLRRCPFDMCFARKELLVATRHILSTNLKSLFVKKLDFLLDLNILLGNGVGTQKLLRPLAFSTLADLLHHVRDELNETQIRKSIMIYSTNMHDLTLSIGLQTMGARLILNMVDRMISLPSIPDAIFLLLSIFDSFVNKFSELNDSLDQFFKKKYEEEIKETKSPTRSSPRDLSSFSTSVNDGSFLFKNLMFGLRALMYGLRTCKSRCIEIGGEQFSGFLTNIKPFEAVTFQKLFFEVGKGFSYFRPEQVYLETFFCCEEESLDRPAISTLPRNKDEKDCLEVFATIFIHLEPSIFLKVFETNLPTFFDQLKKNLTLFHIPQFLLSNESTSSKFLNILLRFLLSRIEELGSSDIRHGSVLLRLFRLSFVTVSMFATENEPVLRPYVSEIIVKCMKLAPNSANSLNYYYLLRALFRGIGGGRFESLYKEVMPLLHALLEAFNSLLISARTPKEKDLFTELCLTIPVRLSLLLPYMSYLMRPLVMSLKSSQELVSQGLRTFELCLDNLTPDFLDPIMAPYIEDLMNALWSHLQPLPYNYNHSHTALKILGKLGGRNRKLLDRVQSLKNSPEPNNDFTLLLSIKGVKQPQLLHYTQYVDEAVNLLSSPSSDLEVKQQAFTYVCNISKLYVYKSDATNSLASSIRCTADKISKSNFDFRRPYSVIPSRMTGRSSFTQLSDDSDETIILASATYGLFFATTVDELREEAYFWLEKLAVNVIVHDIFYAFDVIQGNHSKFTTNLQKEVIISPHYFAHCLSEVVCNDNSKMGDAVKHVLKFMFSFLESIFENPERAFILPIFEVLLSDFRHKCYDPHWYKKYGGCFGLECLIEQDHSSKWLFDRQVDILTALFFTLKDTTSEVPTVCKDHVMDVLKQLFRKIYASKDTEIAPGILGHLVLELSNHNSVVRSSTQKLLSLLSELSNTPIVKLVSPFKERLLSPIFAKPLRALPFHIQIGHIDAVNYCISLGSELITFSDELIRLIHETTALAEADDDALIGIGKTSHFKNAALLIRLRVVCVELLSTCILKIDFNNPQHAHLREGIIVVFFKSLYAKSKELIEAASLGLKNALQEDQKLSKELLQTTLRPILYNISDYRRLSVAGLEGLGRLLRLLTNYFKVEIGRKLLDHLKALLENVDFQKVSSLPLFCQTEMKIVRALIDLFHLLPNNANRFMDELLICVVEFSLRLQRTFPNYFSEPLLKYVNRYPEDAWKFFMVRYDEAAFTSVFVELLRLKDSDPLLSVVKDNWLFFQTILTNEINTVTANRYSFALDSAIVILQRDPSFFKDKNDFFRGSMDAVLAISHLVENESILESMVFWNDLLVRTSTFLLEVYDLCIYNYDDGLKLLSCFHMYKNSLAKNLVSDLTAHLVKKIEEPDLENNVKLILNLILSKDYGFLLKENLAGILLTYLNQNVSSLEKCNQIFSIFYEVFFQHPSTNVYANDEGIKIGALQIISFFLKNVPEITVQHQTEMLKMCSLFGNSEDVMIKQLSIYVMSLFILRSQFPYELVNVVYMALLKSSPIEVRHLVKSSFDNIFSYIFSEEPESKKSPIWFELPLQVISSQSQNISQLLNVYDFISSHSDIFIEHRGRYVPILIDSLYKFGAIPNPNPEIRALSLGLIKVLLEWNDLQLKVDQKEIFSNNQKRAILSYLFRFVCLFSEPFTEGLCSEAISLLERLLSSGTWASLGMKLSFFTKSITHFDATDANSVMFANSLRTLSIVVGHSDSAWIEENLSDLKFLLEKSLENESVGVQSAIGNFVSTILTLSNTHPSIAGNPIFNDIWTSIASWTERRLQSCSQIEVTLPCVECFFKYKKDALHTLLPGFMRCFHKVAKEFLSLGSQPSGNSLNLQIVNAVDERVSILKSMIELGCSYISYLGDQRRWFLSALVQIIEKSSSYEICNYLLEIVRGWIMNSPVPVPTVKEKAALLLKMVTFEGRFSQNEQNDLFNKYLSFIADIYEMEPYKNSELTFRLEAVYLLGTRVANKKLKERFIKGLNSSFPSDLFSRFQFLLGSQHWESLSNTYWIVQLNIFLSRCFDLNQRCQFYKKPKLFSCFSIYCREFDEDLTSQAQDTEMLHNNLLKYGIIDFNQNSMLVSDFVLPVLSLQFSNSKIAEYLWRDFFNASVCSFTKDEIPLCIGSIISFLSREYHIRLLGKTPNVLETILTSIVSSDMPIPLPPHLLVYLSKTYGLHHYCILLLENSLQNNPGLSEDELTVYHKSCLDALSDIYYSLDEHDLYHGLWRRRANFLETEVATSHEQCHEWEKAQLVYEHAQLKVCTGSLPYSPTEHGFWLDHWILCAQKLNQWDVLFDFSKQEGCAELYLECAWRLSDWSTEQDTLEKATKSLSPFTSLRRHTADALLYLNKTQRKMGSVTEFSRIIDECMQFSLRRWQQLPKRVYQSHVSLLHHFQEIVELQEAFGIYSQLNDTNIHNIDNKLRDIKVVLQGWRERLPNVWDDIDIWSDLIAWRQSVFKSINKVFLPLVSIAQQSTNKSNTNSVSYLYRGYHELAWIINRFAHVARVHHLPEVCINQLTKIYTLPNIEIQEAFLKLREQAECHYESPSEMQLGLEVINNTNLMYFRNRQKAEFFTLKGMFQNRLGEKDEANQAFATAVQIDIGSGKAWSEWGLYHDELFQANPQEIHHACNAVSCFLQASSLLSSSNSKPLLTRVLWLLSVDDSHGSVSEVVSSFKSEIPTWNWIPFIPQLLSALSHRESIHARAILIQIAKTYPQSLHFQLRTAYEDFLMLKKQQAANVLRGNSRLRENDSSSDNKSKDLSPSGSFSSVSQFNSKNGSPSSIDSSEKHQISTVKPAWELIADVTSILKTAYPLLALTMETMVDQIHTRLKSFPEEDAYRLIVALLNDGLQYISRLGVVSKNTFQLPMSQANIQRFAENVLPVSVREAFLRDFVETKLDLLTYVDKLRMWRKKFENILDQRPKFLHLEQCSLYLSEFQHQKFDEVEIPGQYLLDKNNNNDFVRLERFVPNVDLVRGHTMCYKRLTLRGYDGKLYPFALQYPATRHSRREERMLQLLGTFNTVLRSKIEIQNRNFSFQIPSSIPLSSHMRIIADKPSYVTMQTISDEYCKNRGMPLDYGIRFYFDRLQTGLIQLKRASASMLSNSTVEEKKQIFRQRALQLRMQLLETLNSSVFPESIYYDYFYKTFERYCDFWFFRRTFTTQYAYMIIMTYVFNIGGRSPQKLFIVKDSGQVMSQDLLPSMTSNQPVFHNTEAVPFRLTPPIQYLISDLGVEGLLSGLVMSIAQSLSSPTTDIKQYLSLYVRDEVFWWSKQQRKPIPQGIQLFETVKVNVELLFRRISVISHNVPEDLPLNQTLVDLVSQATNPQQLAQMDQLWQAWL

Experiment [2] deals with T2, Mst1-TAP (S. pombe) (S. pombe) (UniProt O94446).
T2 sequence: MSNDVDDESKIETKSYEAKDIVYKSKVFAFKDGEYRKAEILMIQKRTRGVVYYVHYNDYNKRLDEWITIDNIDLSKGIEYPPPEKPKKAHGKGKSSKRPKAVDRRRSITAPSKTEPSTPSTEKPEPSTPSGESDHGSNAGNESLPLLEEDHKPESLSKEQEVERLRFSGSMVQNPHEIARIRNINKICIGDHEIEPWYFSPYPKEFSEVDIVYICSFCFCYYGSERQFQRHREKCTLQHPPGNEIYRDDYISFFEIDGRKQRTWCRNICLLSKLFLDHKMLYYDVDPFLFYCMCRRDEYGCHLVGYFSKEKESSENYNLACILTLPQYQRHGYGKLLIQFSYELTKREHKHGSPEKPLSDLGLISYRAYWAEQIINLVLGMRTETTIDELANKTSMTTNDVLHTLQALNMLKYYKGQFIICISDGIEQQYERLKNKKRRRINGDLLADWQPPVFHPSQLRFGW
Description: affinity purification with mass spectrometry; tandem affinity purification of NuA4 by Mst1-TAP, Epl1-TAP or Vid21-TAP from S. pombe extracts, silver staining and LFQ LC-MS/MS; also tti2-CKO and tra2-CKO strains with DMSO or β-estradiol.

The target of experiment [3] is T3, Spt7-TAP (S. pombe) (S. pombe) (UniProt P87152).
T3 sequence: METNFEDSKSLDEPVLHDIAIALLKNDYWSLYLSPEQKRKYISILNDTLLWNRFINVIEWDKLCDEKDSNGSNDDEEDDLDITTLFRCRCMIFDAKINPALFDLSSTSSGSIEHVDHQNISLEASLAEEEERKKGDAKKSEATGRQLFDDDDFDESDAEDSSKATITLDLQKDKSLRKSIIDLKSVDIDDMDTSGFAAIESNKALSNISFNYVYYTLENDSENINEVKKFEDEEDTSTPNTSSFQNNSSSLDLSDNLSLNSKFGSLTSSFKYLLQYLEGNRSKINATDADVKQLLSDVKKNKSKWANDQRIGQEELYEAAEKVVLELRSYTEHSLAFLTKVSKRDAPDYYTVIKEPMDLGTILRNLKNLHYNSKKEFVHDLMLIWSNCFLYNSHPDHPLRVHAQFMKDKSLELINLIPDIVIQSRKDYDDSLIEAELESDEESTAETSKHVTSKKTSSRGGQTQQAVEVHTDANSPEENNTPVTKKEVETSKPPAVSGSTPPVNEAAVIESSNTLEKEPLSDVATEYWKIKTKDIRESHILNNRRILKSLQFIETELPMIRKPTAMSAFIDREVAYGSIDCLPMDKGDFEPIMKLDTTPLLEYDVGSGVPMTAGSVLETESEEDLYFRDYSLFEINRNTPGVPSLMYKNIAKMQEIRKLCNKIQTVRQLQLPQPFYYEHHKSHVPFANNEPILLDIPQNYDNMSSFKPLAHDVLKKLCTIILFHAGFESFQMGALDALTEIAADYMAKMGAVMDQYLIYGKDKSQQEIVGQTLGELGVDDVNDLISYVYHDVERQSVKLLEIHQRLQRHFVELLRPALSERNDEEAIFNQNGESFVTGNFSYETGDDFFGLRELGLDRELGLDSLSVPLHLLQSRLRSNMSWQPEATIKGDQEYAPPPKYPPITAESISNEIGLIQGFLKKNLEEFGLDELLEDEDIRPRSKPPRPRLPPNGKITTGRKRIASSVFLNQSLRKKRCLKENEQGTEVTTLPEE
Nature of the experiment: affinity purification with mass spectrometry; tandem affinity purification of SAGA by Spt7-TAP from S. pombe extracts (WEB or CLB buffer), EGTA eluates, silver staining and LFQ LC-MS/MS (prey to bait ratio); wild-type, tra1 hybrid and spt20 mutant strains; also tti2-CKO with DMSO or β-estradiol, RI-tra1, tel2-AID and hsp90 mutant strains.

These are yes or no findings as the source states them, for the method shown. Binding seen in cells or lysates may run through a third protein. These calls come from enrichment with a bait or labelling near it, and not all partners need be listed. For part of these data: No binding means not detected with the bait.

Regarding “Tra2 (S. pombe) (from UniProt Q10064 1-3655)”, the binding entry in experiment [1] and in experiment [2] was “binds” throughout.

“FLAG-Tra1 (S. pombe, wild type) (from UniProt Q9HFE8 1-3661)”: in experiment [1], the binding entry is reported as “binds”.

With “Spt20-FIEN (S. pombe Spt20 with the four FIEN residues of the HIT region mutated) (from UniProt O14174)”, the binding result in experiment [3] is “binds”.

Turning to “Spt20-RRKR (S. pombe Spt20 with the four RRKR residues of the HIT region mutated) (from UniProt O14174)”, the binding result in experiment [3] is on record as “binds”.

B1: Spt20-HITΔ (S. pombe Spt20 with the HIT region deleted) (protein, UniProt O14174)
chain: MERNNGLGDYTYRYHGKELSLDDFQNKQGIESSDDAFLSKIYENVSNFNVPRKLHDIEHKFSKEEPSLILHIHKFHFRFEQQDGAFTYNGPVKSILQYIRMELIPPDCLEVFRNSDVKFYDGCLTVRIIDHRQSPSADQTVQPQPGSTNQQQQNNTNPINNQPEDTKPNTNSPPVYHTVLRPTPETLWQDLCLLSESFANSLSDEAVLTLESNILLASEAPLFLTPAKSKAEMIQFMNQLADSAPPCTRKKPQGSAQLADEEAERLEKENLLLLMDDQRKRDFQPTFQRAILQQRQMQMQQQQKAQQQQSPKAQQPPAHLVQSAPVQRKTTPKIQRLPPSSIQIPPPKPMQKFPANAASSESPPNATGNFLPSGPVPANEPMLKRESVDLIKIRQLAILFQQRASQLKARGATREQITEILNRQAIAAGTDLATVMTVARNLHFQQLQMRQQQQQQQMKAER
Turning to B1, the binding entry in experiment [3] is “binds”.

B2: Spt20 lacking its N-terminal half (residues 1-255 deleted) (domain or fragment, UniProt O14174 256-473)
chain: AQLADEEAERLEKENLLLLMDDQRKRDFQPTFQRLQFIENVRRKRAILQQRQMQMQQQQKAQQQQSPKAQQPPAHLVQSAPVQRKTTPKIQRLPPSSIQIPPPKPMQKFPANAASSESPPNATGNFLPSGPVPANEPMLKRESVDLIKIRQLAILFQQRASQLKARGATREQITEILNRQAIAAGTDLATVMTVARNLHFQQLQMRQQQQQQQMKAER
For the molecule B2, the binding entry in experiment [3] is reported as “no binding”.

B3: Sgf73 (S. pombe) (protein, UniProt O94397 1-344)
chain: MLTEQQTLELFPENWERNEQVLLKYPDGLPKDVLADQRVDNTESQVKDEITSNITNQTQILLPADSFPQYGSYPNNSELDYVVCTKCDRPFLSEYIEDHHSSCNGIKPPKPQFEPVANSQVLNKDVNNGNNAPIKNGVKSTAKGSAGNHEKNSVNGQKNPEMPPKRRKTEENKKPTKSALPKKEASKKKNPKVKGPVDVEKQCGVLLPNGQMCARSLTCKTHSMSSKRAVPGRSQPYDVLLAACQKKNQVKIQRQILETAKESEDNQHQAPVDSDEEVSFIMNVLQKSGNQPLEQKVFLPVKRRHSYFRTRELIAAAFRHGEQGMQVTGTILGRVIPFSARQPL
As to B3, the binding result in experiment [3] is listed as “binds”.

B4: Spt20-300 (S. pombe Spt20 truncation, residues 301-474 deleted) (domain or fragment, UniProt O14174 1-300)
chain: MERNNGLGDYTYRYHGKELSLDDFQNKQGIESSDDAFLSKIYENVSNFNVPRKLHDIEHKFSKEEPSLILHIHKFHFRFEQQDGAFTYNGPVKSILQYIRMELIPPDCLEVFRNSDVKFYDGCLTVRIIDHRQSPSADQTVQPQPGSTNQQQQNNTNPINNQPEDTKPNTNSPPVYHTVLRPTPETLWQDLCLLSESFANSLSDEAVLTLESNILLASEAPLFLTPAKSKAEMIQFMNQLADSAPPCTRKKPQGSAQLADEEAERLEKENLLLLMDDQRKRDFQPTFQRLQFIENVRRKR
For B4, the binding entry in experiment [3] was “binds”.

B5: Taf12 (S. pombe) (protein, UniProt O13722 1-450)
chain: MNGQHSSPGTPVQRPSAGPVNQAQFSQQRTNQLTSLLHTMTMYQQLAQNVGLNTPQGQVYLLQAQTIRRQLQGHAQSGQLPNQQLLQQLQSNGALQQGTPEPSNTRPRPQLNAQEQTMLLVRHRQLQTAQNYLTEMKEALGRIKNELSTNERLDTSAREALVKQESELTVKIAQFTAAISNGIRSIQQLQNRQASSANGNNTGTSTPVNASTDTRKSTASTPQLQQTQAQANAPQQRINPETSSVPETPVGVSAANVSNESTELATSATQQSGLANNVEKSQTPSYMSANHLPKVDSKSPIPFSVPPSRATLTGGYASGSIGLSTPGLSRAPHYELDNGNRLLSKRKLHDLLQQIDSEEKIEPEVEELLLEIADEFVESVTNFACRLAKHRKSDTLDVRDVQLHLERNWNIRLPGFASDDIVKSARKTGPTPSYQQKQNAIGTAKSLNKD
Consider B5, for which the binding entry in experiment [3] is “binds”.

B6: Spt20-290 (S. pombe Spt20 truncation, residues 291-474 deleted) (domain or fragment, UniProt O14174 1-290)
chain: MERNNGLGDYTYRYHGKELSLDDFQNKQGIESSDDAFLSKIYENVSNFNVPRKLHDIEHKFSKEEPSLILHIHKFHFRFEQQDGAFTYNGPVKSILQYIRMELIPPDCLEVFRNSDVKFYDGCLTVRIIDHRQSPSADQTVQPQPGSTNQQQQNNTNPINNQPEDTKPNTNSPPVYHTVLRPTPETLWQDLCLLSESFANSLSDEAVLTLESNILLASEAPLFLTPAKSKAEMIQFMNQLADSAPPCTRKKPQGSAQLADEEAERLEKENLLLLMDDQRKRDFQPTFQRL
For the molecule B6, in experiment [3], the binding entry is “binds”.

B7: Spt20 (S. pombe) (protein, UniProt O14174 1-473)
chain: MERNNGLGDYTYRYHGKELSLDDFQNKQGIESSDDAFLSKIYENVSNFNVPRKLHDIEHKFSKEEPSLILHIHKFHFRFEQQDGAFTYNGPVKSILQYIRMELIPPDCLEVFRNSDVKFYDGCLTVRIIDHRQSPSADQTVQPQPGSTNQQQQNNTNPINNQPEDTKPNTNSPPVYHTVLRPTPETLWQDLCLLSESFANSLSDEAVLTLESNILLASEAPLFLTPAKSKAEMIQFMNQLADSAPPCTRKKPQGSAQLADEEAERLEKENLLLLMDDQRKRDFQPTFQRLQFIENVRRKRAILQQRQMQMQQQQKAQQQQSPKAQQPPAHLVQSAPVQRKTTPKIQRLPPSSIQIPPPKPMQKFPANAASSESPPNATGNFLPSGPVPANEPMLKRESVDLIKIRQLAILFQQRASQLKARGATREQITEILNRQAIAAGTDLATVMTVARNLHFQQLQMRQQQQQQQMKAER
For the molecule B7, in experiment [3], the binding entry is given as “binds”.

For the origin of these results see publication PMC6868236.
